Source: article PMC11684077

System: MBP-TGA4 (Solanum lycopersicum)
Assay: EMSA
Settings: LightShift Chemiluminescent EMSA Kit (Thermo 20148) guidelines; 3'-biotin probes; competitors 1,000-fold; pH and temperature not stated; recombinant protein; protein details: MBP; label: 3' biotin

Row | Sequence | binding result
1 | TATCTTTTTGACGTGCAATA (double strand) [NRT1.1 probe] | binds
2 | AAACACACGTCAGGCTTCCA (double strand) [NRT2.1 probe] | binds

Construct, isoform or probe ends are uncertain for at least one entry.
